# Test results published in the supplement of paper PMC9254222.
# This list holds what a sample rich in highest values left over.
# Test system: HEK293T (UBE3A T485A transfected, BAR Wnt reporter)
# Assay: Renilla luciferase signal (cell health) relative to plate median (fold (linear ratio)); higher = higher Renilla signal
# Conditions: 24 h
# Method in brief: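 Chemicals were robotically dosed at 0.01–100 uM for 24 h onto HEK293T cells, starting four hours after transfection with a BAR firefly luciferase Wnt reporter, TK-Renilla and an expression plasmid. The cells had been plated at 4500 cells/well in DMEM with 10% FBS at 37°C and 5% CO2. Following a Dual-Glo luciferase readout, the firefly/Renilla ratio served as the Wnt activity measure and raw Renilla as the cell health measure, both median-centred on each plate. Each value is the mean of four biological replicates.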
smiles,measurement,setting,value
O=C(c1ccccc1)c1ccccc1 [Benzophenone],Renilla luciferase signal,concentration: 0.1 uM,0.9
same,Renilla luciferase signal,concentration: 1 uM,0.806
same,Renilla luciferase signal,concentration: 10 uM,0.912
same,Renilla luciferase signal,concentration: 100 uM,1.01
